Assay results published in patent publication US20020068684A1, “Stripping and cleaning compositions” (priority 1999, published 2002).

Experiment: Corrosion inhibitor efficiency from metal etch rates, blanket copper films, four point probe
Conditions: for corrosion inhibition of copper films relative to gallic acid: DMAC, water, 45% choline hydroxide (wt % of 64/30/6)

| SMILES | corrosion inhibition of copper films relative to gallic acid | corrosion inhibition for copper compared with other inhibitors (1 wt % vs 5 wt % of 8-HQ, catechol, pyrogallol, gallic acid, benzoic acid and benzotriazole) |
| --- | --- | --- |
| O=C(O)c1ccccc1 [Benzoic Acid] | same protection as gallic acid |  |
| O=C(O)CC(=O)O [Malonic Acid] |  | better corrosion inhibition |
| CCOC(=O)c1cc(O)c(O)c(O)c1 [ethyl gallate] | did not provide the same level of corrosion inhibition as gallic acid |  |
